Assay results taken from PubChem BioAssay AID2685 (National Center for Advancing Translational Sciences (NCATS), 2010).
This is one part of the list. These are further read-outs of the screen, such as a control signal, another cell line or another target. No call is given for them. Compounds called inactive in the main read-out are mostly missing here. The note in brackets gives the kind of curve behind each potency; many fits are weak.

Assay: qHTS Assay for Lipid Storage Modulators in Drosophila S3 Cells;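 for cell number change: cells counted by Cell Tracker Red CMTPX staining in the red channel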
Details: BODIPY lipid droplet fluorescence, 18-24 h; for cell number change: measured here: cell count max response, cells fed with added oleic acid
Outline: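 Laser-scanning cytometry quantifies lipid droplet accumulation (500–530 nm total intensity; droplet/cell object ratio) in oleic acid-fed (400 uM added) Drosophila S3 cells treated with a concentration series. 20 uM Triacsin C defined 100% inhibition.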

[1] = measured here: cell number channel AC50, cells fed with added oleic acid
[2] = measured here: lipid fluorescence (Fed channel) AC50, cells fed with added oleic acid

| SMILES | cell number change | AC50 [1] | AC50 [2] |
| --- | --- | --- | --- |
| Cc1ccc(NC(=O)COn2nnc3ccc(S(=O)(=O)N(C)C)cc32)cc1F | 48.4% | 2.59 µM [rising, full curve] | 2.91 µM [rising, partial curve] |
| C1=C(c2ccccc2)Nc2ccccc2N=C1c1ccccc1 | 22.4% |  | 2.91 µM [rising, full curve] |
| COc1ccc(N2CCN(C(=O)C3(S(=O)(=O)c4ccc(C)cc4)CC3)CC2)cc1 | -10.5% |  |  |
| O=C(CN1C(=O)NC2(CCCCC2)C1=O)Nc1ccc(Cl)c(S(=O)(=O)N2CCOCC2)c1 | -19.7% |  | 29.1 µM [falling, single point] |
| Cn1cc(S(=O)(=O)N2CCC3(CC2)OCCO3)c(=O)n(C)c1=O | 17.7% |  | 0.00651 µM [rising, full curve, poor fit] |
| COc1cc(/C=C/C(=O)Nc2cccc(S(=O)(=O)NC3=NCCCCC3)c2)ccc1OCC#N | 32.5% | 29.1 µM [rising, single point] |  |
| COc1cc(/C=C2\C(=N)N3N=CSC3=NC2=O)ccc1OS(=O)(=O)c1ccccc1 |  |  | 6.51 µM [falling, partial curve] |
| CC(Sc1nc(-c2ccccc2)cc(=O)[nH]1)C(=O)O (configuration not stated) | -12% |  |  |
| C=CCn1c(SCC(O)Cn2c3ccccc3c3ccccc32)nnc1-c1ccco1 (configuration not stated) | -6.72% | 4.11 µM [rising, single point] | 2.59 µM [rising, single point] |
| Cc1cccc(OCC(=O)N(C)CCc2ccccn2)c1 |  |  | 18.4 µM [rising, partial curve] |
| COC(=O)CN1C(C)=Nc2ccc(Br)cc2C1c1ccccc1 (configuration not stated) |  |  | 2.31 µM [falling, partial curve] |
| CC(=O)N1CCN(S(=O)(=O)c2cccc(C(=O)Nc3ccccc3N3CCCCC3)c2)CC1 |  | 2.06 µM [rising, single point] |  |
| COc1ccc(N=C(NN)c2ccc3ccccc3n2)cc1 | 16.7% |  | 6.51 µM [rising, partial curve] |
| C[C@@H]1CCC2[C@](C)(CO)[C@@H](O)CC[C@]2(C)[C@@]12CC[C@@](CO)(CC(=O)O)O2 (some centres not stated) | -22.4% |  | 11.6 µM [falling, partial curve] |
| O=C(NC(=S)Nc1ccccc1N1CCN(C(=O)c2ccccc2)CC1)c1ccccc1F | -1.47% |  |  |
| COc1ccc(CC(=O)OCN2C(=O)c3ccccc3C2=O)cc1 | 5.67% |  |  |
| Cn1c(SCC(=O)N2CCCC2=O)nnc1-c1ccccc1F | -30.1% | 0.326 µM [falling, partial curve] |  |
| CCOC(=O)CCc1c(C)c2ccc(OCc3cc([N+](=O)[O-])ccc3OC)c(C)c2oc1=O |  | 0.058 µM [rising, full curve, poor fit] | 0.116 µM [rising, full curve, poor fit] |

| SMILES | cell number change | AC50 [1] | AC50 [2] |
| --- | --- | --- | --- |
| Cc1cc(C)cc(OCC(=O)O/N=C(\N)c2ccccn2)c1 | 42.8% | 3.26 µM [rising, partial curve] | 6.51 µM [rising, single point] |
| O=C(COC(=O)Cc1ccccc1F)Nc1ccc2c(c1)OCCO2 | 34.5% | 1.84 µM [rising, partial curve] |  |
| O=C1NN(c2ccc(Cl)c(Cl)c2)C(=O)/C1=C/c1cccc(OC(=O)c2cccs2)c1 |  |  | 18.4 µM [falling, partial curve] |
| Cc1nn(-c2ccccc2)c(Cl)c1/C=N/NC(=O)CNC(=O)c1ccccc1Cl | 0.321% |  | 5.17 µM [falling, partial curve] |
| COc1ccc(CCNC(=O)C2CCCN2C(=O)Nc2ccc(F)cc2)cc1OC (configuration not stated) | 14.8% |  | 6.51 µM [rising, single point] |
| CCc1ccc(NSc2ccccc2[N+](=O)[O-])cc1 | -142% | 10.3 µM [falling, partial curve] | 29.1 µM [falling, partial curve] |
| COc1ccc(Cl)cc1NC(=O)CN(C)C(=O)CCCNC(=O)c1ccc(Cl)cc1 | 41.1% | 10.3 µM [rising, single point] |  |
| Cc1cccn2c(=O)c3cc(C(=O)NC(C)C)c(=N)n(Cc4ccncc4)c3nc12 |  | 0.58 µM [rising, single point] |  |
| COc1ccc(C(=O)NC(=S)Nc2ccc(S(=O)(=O)Nc3cc(OC)ncn3)cc2)cc1 | 9.4% |  | 0.731 µM [rising, partial curve, poor fit] |
| Brc1ccccc1C1=Nn2c(nnc2-c2ccco2)SC1 | 5.55% |  | 0.00517 µM [falling, full curve, poor fit] |
| CCN(C#N)c1nc(NC(C)C)nc(NC(C)(C)C)n1 | -12.9% | 0.13 µM [falling, full curve, poor fit] | 0.651 µM [falling, full curve, poor fit] |
| Cc1ccc([C@@H]2[C@@H]3C(=O)N(C)C(=O)[C@@H]3[C@@H]3C(=O)Nc4ccccc4C(=O)N23)cc1 | -8.09% |  | 0.00461 µM [falling, full curve, poor fit] |
| CCC(c1nnnn1Cc1ccc2c(c1)OCO2)N1CCN(c2ccc(F)cc2)CC1 (configuration not stated) | 21.7% | 2.59 µM [rising, full curve, poor fit] |  |
| CCN(CC)C(=O)c1cc([N+](=O)[O-])cc2c1-c1ccc([N+](=O)[O-])cc1C2=C(C#N)C#N | -13.1% |  |  |
| O=C(NC1CC1)C1CCN(C2CCN(Cc3ccccc3C(F)(F)F)CC2)CC1 | -8.25% | 0.0731 µM [rising, full curve, poor fit] |  |
| Cc1ccc(S(=O)(=O)N2[C@@H](c3ccccc3F)C(C(=O)O)=CC[C@H]2c2ccc3c(c2)OCO3)cc1 | 35.5% | 6.51 µM [falling, single point] |  |
| CSc1ncccc1C(=O)OCC(=O)NC1CC1 | -32.7% | 4.61 µM [falling, full curve, poor fit] | 6.51 µM [falling, single point] |
| O=C(NNC(=O)C1CCCCC1)c1ccc(Br)cc1 | -32.4% | 20.6 µM [falling, single point] |  |

Rewritten with bars between the fields: part of the list above
SMILES | cell number change | AC50 [1] | AC50 [2]
Cc1nn(-c2ccccc2)c(Cl)c1/C=N/NC(=O)CNC(=O)c1ccccc1Cl | 0.321% |  | 5.17 µM [falling, partial curve]
COc1ccc(CCNC(=O)C2CCCN2C(=O)Nc2ccc(F)cc2)cc1OC (configuration not stated) | 14.8% |  | 6.51 µM [rising, single point]
CCc1ccc(NSc2ccccc2[N+](=O)[O-])cc1 | -142% | 10.3 µM [falling, partial curve] | 29.1 µM [falling, partial curve]
COc1ccc(Cl)cc1NC(=O)CN(C)C(=O)CCCNC(=O)c1ccc(Cl)cc1 | 41.1% | 10.3 µM [rising, single point] | 
Cc1cccn2c(=O)c3cc(C(=O)NC(C)C)c(=N)n(Cc4ccncc4)c3nc12 |  | 0.58 µM [rising, single point] | 
COc1ccc(C(=O)NC(=S)Nc2ccc(S(=O)(=O)Nc3cc(OC)ncn3)cc2)cc1 | 9.4% |  | 0.731 µM [rising, partial curve, poor fit]
Brc1ccccc1C1=Nn2c(nnc2-c2ccco2)SC1 | 5.55% |  | 0.00517 µM [falling, full curve, poor fit]
CCN(C#N)c1nc(NC(C)C)nc(NC(C)(C)C)n1 | -12.9% | 0.13 µM [falling, full curve, poor fit] | 0.651 µM [falling, full curve, poor fit]
Cc1ccc([C@@H]2[C@@H]3C(=O)N(C)C(=O)[C@@H]3[C@@H]3C(=O)Nc4ccccc4C(=O)N23)cc1 | -8.09% |  | 0.00461 µM [falling, full curve, poor fit]
CCC(c1nnnn1Cc1ccc2c(c1)OCO2)N1CCN(c2ccc(F)cc2)CC1 (configuration not stated) | 21.7% | 2.59 µM [rising, full curve, poor fit] | 
CCN(CC)C(=O)c1cc([N+](=O)[O-])cc2c1-c1ccc([N+](=O)[O-])cc1C2=C(C#N)C#N | -13.1% |  | 
